Reference: publication PMC5007559
These are yes or no findings as the source states them, for the method shown. In cells and extracts the contact can be indirect. Where a sequence is shown, tags or fusion partners need not be part of it.

Protein sequences, listed by entry. Tags and fused reporters are not part of them. Lines headed by an entry give the natural chain unless they say otherwise; changes in a name come on top.
UniProt P35637, whole entry: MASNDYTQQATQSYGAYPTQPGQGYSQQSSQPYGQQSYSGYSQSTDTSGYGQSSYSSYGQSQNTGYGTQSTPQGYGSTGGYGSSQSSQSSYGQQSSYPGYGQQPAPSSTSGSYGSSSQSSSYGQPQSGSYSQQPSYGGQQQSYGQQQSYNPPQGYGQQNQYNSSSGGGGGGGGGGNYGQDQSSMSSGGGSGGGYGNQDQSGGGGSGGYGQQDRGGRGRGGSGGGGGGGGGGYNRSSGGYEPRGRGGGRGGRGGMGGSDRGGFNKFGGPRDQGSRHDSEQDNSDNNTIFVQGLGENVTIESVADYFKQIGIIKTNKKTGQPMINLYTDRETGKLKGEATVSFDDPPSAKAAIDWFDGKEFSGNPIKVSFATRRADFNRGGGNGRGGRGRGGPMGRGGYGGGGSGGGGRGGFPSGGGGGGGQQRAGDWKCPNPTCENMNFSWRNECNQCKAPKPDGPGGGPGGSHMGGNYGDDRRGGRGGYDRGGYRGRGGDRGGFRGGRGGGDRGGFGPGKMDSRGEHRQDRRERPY

molecular target: T1, haemagglutinin (HA)-tagged PTPIP51 (UniProt Q96TC7); test: co-IP; HEK293 cells transfected with HA-PTPIP51 and HA-FUS (wild type, R521C or R518K); PTPIP51 immunoprecipitated with rat anti-PTPIP51, FUS probed with rabbit FUS antibody; 50 mM Tris-citrate pH 7.4, 150 mM NaCl, 1% Triton X-100, 5 mM EGTA, 5 mM EDTA, 4 C
T1 sequence: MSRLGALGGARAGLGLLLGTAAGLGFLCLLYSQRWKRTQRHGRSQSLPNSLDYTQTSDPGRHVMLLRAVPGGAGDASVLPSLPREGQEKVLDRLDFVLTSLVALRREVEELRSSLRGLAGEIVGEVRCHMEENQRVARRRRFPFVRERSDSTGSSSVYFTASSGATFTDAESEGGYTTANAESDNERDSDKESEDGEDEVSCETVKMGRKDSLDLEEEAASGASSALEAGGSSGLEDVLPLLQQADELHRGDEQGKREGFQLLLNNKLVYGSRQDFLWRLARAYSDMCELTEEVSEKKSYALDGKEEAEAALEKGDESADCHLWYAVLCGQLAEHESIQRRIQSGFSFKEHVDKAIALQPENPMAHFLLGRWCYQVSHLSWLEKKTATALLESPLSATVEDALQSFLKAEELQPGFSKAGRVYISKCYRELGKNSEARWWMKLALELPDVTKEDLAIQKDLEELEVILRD

| Substance | binding |
| --- | --- |
| HA-tagged familial ALS mutant FUS R518K (from UniProt P35637 1-526) | no binding |
| HA-tagged familial ALS mutant FUS R521C (from UniProt P35637 1-526) | no binding |
| HA-tagged wild-type FUS (fused in sarcoma) (from UniProt P35637 1-526) | no binding |
